Reference: patent publication US5932541A, “Method of adjusting the circadian rhythm of a mammal” (Gruenenthal GmbH, priority 1998, dated 1999)

System: hamsters
Experiment: Visual observation of overt behavior for two hours post-injection
Format: in vivo, hamster (Mesocricetus auratus)
Protocol: Animals were maintained initially in a 14:10 hour light:dark cycle for 7-10 days, then transferred to constant dim red lighting (RR) conditions for the remainder of the experiment (40-60 days). After free-running for 7 days in dim red lighting, animals either received Montirelin or vehicle intraperitoneally. The daily onset of wheel-running activity was defined as circadian time 12 (CT 12), and this time was used as a reference point in determining appropriate circadian injection times. The test animals were divided into eight groups of three animals each, and intraperitoneal injections of the active compound at dosage levels of 10 or 20 mg/kg or of the vehicle alone were administered to respective test groups at circadian time 3 (CT 3) or circadian time 16 (CT 16). The order of injections and time points was randomized. An additional 4 animals maintained in similar lighting conditions were visually observed for two hours post-injection of Montirelin (10 or 20 mg/kg) to determine any overt behavioral effects exerted by this compound. A total of 9 injections were made for each of the eight treatment groups.

SMILES: CC1SCC(C(=O)N[C@@H](Cc2c[nH]cn2)C(=O)N2CCC[C@H]2C(N)=O)NC1=O (stereo partly drawn) [Montirelin, 6-methyl-5-oxo-3-thiomorpholinylcarbonyl-L-histidyl-L-prolinamide]
- share of observation period apparently asleep (10 mg/kg i.p. at CT 3 (drug and vehicle animals alike)): 90%
- wheel running activity, share of study period (10 mg/kg i.p. at CT 16, both drug and vehicle groups): approximately 55%
- persistence of induced behaviors at end of two hour observation period (20 mg/kg i.p.): continued to show Montirelin-induced behaviors
- time behavioral effects first noted post-injection (20 mg/kg i.p.): 25 min
- time of maximal behavioral effects after drug administration (20 mg/kg i.p.): 80 min
- time on running wheel, share of observation period (20 mg/kg i.p., either circadian time, vehicle 0% (CT 3) and 52% (CT 16)): approx. 5%
